Results are given in words; binding and its absence hold for the method and conditions named. Binding seen in cells or lysates may run through a third protein. Here binding means that the protein was enriched with, or labelled near, the bait; the list need not be complete.
B1: SRSF7 (protein, UniProt Q16629 1-238)
chain: MSRYGRYGGETKVYVGNLGTGAGKGELERAFSYYGPLRTVWIARNPPGFAFVEFEDPRDAEDAVRGLDGKVICGSRVRVELSTGMPRRSRFDRPPARRPFDPNDRCYECGEKGHYAYDCHRYSRRRRSRSRSRSHSRSRGRRYSRSRSRSRGRRSRSASPRRSRSISLRRSRSASLRRSRSGSIKGSRYFQSPSRSRSRSRSISRPRSSRSKSRSPSPKRSRSPSGSPRRSASPERMD
B2: SRSF8 (protein, UniProt Q9BRL6 1-282)
chain: MSCGRPPPDVDGMITLKVDNLTYRTSPDSLRRVFEKYGRVGDVYIPREPHTKAPRGFAFVRFHDRRDAQDAEAAMDGAELDGRELRVQVARYGRRDLPRSRQGEPRGRSRGGGYGRRSRSYGRRSRSPRRRHRSRSRGPSCSRSRSRSRYRGSRYSRSPYSRSPYSRSRYSRSPYSRSRYRESRYGGSHYSSSGYSNSRYSRYHSSRSHSKSGSSTSSRSASTSKSSSARRSKSSSVSRSRSRSRSSSMTRSPPRVSKRKSKSRSRSKRPPKSPEEEGQMSS
B3: CMTR1 (protein, UniProt Q8N1G2 1-835)
chain: MKRRTDPECTAPIKKQKKRVAELALSLSSTSDDEPPSSVSHGAKASTTSLSGSDSETEGKQHSSDSFDDAFKADSLVEGTSSRYSMYNSVSQKLMAKMGFREGEGLGKYSQGRKDIVEASSQKGRRGLGLTLRGFDQELNVDWRDEPEPSACEQVSWFPECTTEIPDTQEMSDWMVVGKRKMIIEDETEFCGEELLHSVLQCKSVFDVLDGEEMRRARTRANPYEMIRGVFFLNRAAMKMANMDFVFDRMFTNPRDSYGKPLVKDREAELLYFADVCAGPGGFSEYVLWRKKWHAKGFGMTLKGPNDFKLEDFYSASSELFEPYYGEGGIDGDGDITRPENISAFRNFVLDNTDRKGVHFLMADGGFSVEGQENLQEILSKQLLLCQFLMALSIVRTGGHFICKTFDLFTPFSVGLVYLLYCCFERVCLFKPITSRPANSERYVVCKGLKVGIDDVRDYLFAVNIKLNQLRNTDSDVNLVVPLEVIKGDHEFTDYMIRSNESHCSLQIKALAKIHAFVQDTTLSEPRQAEIRKECLRLWGIPDQARVAPSSSDPKSKFFELIQGTEIDIFSYKPTLLTSKTLEKIRPVFDYRCMVSGSEQKFLIGLGKSQIYTWDGRQSDRWIKLDLKTELPRDTLLSVEIVHELKGEGKAQRKISAIHILDVLVLNGTDVREQHFNQRIQLAEKFVKAVSKPSRPDMNPIRVKEVYRLEEMEKIFVRLEMKIIKGSSGTPKLSYTGRDDRHFVPMGLYIVRTVNEPWTMGFSKSFKKKFFYNKKTKDSTFDLPADSIAPFHICYYGRLFWEWGDGIRVHDSQKPQDQDKLSKEDVLSFIQMHRA
B4: TRIR (protein, UniProt Q9BQ61 1-176)
chain: MAARGRRAEPQGREAPGPAGGGGGGSRWAESGSGTSPESGDEEVSGAGSSPVSGGVNLFANDGSFLELFKRKMEEEQRQRQEEPPPGPQRPDQSAAAAGPGDPKRKGGPGSTLSFVGKRRGGNKLALKTGIVAKKQKTEDEVLTSKGDAWAKYMAEVKKYKAHQCGDDDKTRPLVK
B5: KMT5A (protein, UniProt Q9NQR1 1-393)
chain: MGEGGAAAALVAAAAAAAAAAAAVVAGQRRRRLGRRARCHGPGRAAGGKMSKPCAVEAAAAAVAATAPGPEMVERRGPGRPRTDGENVFTGQSKIYSYMSPNKCSGMRFPLQEENSVTHHEVKCQGKPLAGIYRKREEKRNAGNAVRSAMKSEEQKIKDARKGPLVPFPNQKSEAAEPPKTPPSSCDSTNAAIAKQALKKPIKGKQAPRKKAQGKTQQNRKLTDFYPVRRSSRKSKAELQSEERKRIDELIESGKEEGMKIDLIDGKGRGVIATKQFSRGDFVVEYHGDLIEITDAKKREALYAQDPSTGCYMYYFQYLSKTYCVDATRETNRLGRLINHSKCGNCQTKLHDIDGVPHLILIASRDIAAGEELLYDYGDRSKASIEAHPWLKH
B6: IBTK (protein, UniProt Q9P2D0 1-1353)
chain: MSSPMPDCTSKCRSLKHALDVLSVVTKGSENQIKAFLSSHCYNAATIKDVFGRNALHLVSSCGKKGVLDWLIQKGVDLLVKDKESGWTALHRSIFYGHIDCVWSLLKHGVSLYIQDKEGLSALDLVMKDRPTHVVFKNTDPTDVYTWGDNTNFTLGHGSQNSKHHPELVDLFSRSGIYIKQVVLCKFHSVFLSQKGQVYTCGHGPGGRLGHGDEQTCLVPRLVEGLNGHNCSQVAAAKDHTVVLTEDGCVYTFGLNIFHQLGIIPPPSSCNVPRQIQAKYLKGRTIIGVAAGRFHTVLWTREAVYTMGLNGGQLGCLLDPNGEKCVTAPRQVSALHHKDIALSLVAASDGATVCVTTRGDIYLLADYQCKKMASKQLNLKKVLVSGGHMEYKVDPEHLKENGGQKICILAMDGAGRVFCWRSVNSSLKQCRWAYPRQVFISDIALNRNEILFVTQDGEGFRGRWFEEKRKSSEKKEILSNLHNSSSDVSYVSDINSVYERIRLEKLTFAHRAVSVSTDPSGCNFAILQSDPKTSLYEIPAVSSSSFFEEFGKLLREADEMDSIHDVTFQVGNRLFPAHKYILAVHSDFFQKLFLSDGNTSEFTDIYQKDEDSAGCHLFVVEKVHPDMFEYLLQFIYTDTCDFLTHGFKPRIHLNKNPEEYQGTLNSHLNKVNFHEDDNQKSAFEVYKSNQAQTVSERQKSKPKSCKKGKNIREDDPVRMLQTVAKKFDFSNLSSRLDGVRFENEKINVIAKNTGNKLKLSQKKCSFLCDVTMKSVDGKEFPCHKCVLCARLEYFHSMLSSSWIEASSCAALEMPIHSDILKVILDYLYTDEAVVIKESQNVDFICSVLVVADQLLITRLKEICEVALTEKLTLKNAAMLLEFAAMYSAKQLKLSCLQFIGLNMAALLEARSLDVLSDGVLKDLSEFYRKMIPAMDRRVITPYQDGPDISYLEVEDGDIFLKEEINMEQNHSETMFKKAKTKAKKKPRKRSDSSGGYNLSDIIQSPSSTGLLKSGKTNSVESLPELLTSDSEGSYAGVGSPRDLQSPDFTTGFHSDKIEAKVKPYVNGTSPVYSREDLKPWEKSPILKISAPQPIPSNRIDTTSSASWVAGSFSPVSPPVVDLRTIMEIEESRQKCGATPKSHLGKTVSHGVKLSQKQRKMIALTTKENNSGMNSMETVLFTPSKAPKPVNAWASSLHSVSSKSFRDFLLEEKKSVTSHSSGDHVKKVSFKGIENSQAPKIVRCSTHGTPGPEGNHISDLPLLDSPNPWLSSSVTAPSMVAPVTFASIVEEELQQEAALIRSREKPLALIQIEEHAIQDLLVFYEAFGNPEEFVIVERTPQGPLAVPMWNKHGC
B7: SLUG (doxycycline-induced in MCF7ras+SS) (protein, UniProt O43623 1-268)
chain: MPRSFLVKKHFNASKKPNYSELDTHTVIISPYLYESYSMPVIPQPEILSSGAYSPITVWTTAAPFHAQLPNGLSPLSGYSSSLGRVSPPPPSDTSSKDHSGSESPISDEEERLQSKLSDPHAIEAEKFQCNLCNKTYSTFSGLAKHKQLHCDAQSRKSFSCKYCDKEYVSLGALKMHIRTHTLPCVCKICGKAFSRPWLLQGHIRTHTGEKPFSCPHCNRAFADRSNLRAHLQTHSDVKKYQCKNCSKTFSRMSLLHKHEESGCCVAH

Sequences of proteins named here, by UniProt entry; tags and fusion partners are left off.
UniProt P18615: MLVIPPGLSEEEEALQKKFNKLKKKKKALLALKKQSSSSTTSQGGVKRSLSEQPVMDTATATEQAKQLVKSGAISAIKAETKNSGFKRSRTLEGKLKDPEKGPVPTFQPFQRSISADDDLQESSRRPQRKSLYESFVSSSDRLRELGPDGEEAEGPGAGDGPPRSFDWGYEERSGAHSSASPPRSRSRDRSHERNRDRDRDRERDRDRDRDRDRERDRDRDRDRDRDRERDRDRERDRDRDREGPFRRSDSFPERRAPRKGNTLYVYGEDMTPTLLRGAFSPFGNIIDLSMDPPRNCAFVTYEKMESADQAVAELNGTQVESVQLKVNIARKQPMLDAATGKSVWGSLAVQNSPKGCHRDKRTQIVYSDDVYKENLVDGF
UniProt Q13185: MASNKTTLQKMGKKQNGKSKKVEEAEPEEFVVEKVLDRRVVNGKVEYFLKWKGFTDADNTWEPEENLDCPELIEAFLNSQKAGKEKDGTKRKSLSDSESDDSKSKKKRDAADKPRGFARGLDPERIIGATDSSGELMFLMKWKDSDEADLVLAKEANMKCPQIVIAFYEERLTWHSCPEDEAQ
UniProt Q9NR30: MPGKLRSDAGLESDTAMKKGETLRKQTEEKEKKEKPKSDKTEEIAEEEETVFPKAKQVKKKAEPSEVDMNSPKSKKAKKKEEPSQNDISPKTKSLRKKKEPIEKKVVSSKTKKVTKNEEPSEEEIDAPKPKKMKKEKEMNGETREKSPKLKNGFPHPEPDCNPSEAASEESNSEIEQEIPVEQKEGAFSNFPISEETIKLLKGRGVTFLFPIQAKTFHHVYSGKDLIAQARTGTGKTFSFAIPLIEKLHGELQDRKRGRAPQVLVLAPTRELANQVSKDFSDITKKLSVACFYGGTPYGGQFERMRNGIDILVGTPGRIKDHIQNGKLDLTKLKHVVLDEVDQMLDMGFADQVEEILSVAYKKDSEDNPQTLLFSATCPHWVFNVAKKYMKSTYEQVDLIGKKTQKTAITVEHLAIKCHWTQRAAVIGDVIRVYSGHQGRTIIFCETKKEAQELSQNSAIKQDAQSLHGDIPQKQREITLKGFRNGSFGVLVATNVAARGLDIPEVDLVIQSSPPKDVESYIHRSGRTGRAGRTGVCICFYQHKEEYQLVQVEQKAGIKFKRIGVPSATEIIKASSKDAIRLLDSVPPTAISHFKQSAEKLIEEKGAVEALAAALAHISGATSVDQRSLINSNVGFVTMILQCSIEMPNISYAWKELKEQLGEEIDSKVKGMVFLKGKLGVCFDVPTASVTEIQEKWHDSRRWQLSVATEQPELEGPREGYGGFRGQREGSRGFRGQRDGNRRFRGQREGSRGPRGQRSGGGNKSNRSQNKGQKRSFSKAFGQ
UniProt O43143: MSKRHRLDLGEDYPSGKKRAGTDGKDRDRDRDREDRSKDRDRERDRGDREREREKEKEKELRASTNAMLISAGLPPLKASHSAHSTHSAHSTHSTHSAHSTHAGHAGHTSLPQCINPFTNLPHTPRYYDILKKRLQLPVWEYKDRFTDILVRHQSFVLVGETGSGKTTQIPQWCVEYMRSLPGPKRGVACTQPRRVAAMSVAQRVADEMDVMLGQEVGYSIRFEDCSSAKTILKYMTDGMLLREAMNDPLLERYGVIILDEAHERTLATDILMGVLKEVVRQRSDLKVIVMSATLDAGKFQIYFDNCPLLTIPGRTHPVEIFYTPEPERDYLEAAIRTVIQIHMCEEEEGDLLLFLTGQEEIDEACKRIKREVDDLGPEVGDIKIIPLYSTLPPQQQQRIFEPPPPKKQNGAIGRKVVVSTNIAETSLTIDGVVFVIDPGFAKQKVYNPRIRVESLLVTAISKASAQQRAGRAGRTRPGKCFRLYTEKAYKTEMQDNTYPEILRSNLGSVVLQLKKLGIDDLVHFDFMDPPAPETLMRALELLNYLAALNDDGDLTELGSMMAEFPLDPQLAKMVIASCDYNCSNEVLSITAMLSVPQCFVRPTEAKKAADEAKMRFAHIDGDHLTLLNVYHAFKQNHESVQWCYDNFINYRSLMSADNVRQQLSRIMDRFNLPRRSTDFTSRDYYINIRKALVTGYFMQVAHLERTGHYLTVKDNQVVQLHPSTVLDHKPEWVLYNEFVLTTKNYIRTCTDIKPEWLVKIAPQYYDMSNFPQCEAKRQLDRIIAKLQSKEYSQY
UniProt P06733: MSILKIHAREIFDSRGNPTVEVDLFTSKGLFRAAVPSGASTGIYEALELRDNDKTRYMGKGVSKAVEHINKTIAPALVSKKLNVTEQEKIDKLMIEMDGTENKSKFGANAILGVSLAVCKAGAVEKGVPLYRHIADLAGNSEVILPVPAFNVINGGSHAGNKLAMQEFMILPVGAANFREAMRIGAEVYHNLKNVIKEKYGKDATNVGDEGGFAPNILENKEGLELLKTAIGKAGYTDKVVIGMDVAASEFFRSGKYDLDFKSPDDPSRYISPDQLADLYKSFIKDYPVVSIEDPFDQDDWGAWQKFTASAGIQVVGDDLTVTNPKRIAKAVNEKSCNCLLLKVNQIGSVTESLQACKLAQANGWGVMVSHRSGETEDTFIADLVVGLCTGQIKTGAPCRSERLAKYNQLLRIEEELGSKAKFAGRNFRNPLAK
UniProt P09104: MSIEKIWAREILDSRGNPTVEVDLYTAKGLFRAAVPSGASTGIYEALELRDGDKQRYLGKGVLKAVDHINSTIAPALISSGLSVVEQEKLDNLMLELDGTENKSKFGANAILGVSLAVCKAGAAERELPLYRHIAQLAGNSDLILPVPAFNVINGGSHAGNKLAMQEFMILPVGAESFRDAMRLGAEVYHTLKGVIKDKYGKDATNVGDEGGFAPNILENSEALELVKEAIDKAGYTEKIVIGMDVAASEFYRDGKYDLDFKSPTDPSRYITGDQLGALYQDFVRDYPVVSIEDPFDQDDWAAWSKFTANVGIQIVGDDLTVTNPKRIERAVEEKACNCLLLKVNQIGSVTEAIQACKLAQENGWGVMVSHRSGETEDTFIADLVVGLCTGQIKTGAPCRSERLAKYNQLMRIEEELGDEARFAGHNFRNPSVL
UniProt P09429: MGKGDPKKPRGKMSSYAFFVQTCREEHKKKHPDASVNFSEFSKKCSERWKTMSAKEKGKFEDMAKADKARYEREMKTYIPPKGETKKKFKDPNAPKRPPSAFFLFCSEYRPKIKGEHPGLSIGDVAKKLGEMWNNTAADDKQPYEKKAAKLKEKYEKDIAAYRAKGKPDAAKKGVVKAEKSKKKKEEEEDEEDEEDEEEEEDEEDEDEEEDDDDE
UniProt Q09161: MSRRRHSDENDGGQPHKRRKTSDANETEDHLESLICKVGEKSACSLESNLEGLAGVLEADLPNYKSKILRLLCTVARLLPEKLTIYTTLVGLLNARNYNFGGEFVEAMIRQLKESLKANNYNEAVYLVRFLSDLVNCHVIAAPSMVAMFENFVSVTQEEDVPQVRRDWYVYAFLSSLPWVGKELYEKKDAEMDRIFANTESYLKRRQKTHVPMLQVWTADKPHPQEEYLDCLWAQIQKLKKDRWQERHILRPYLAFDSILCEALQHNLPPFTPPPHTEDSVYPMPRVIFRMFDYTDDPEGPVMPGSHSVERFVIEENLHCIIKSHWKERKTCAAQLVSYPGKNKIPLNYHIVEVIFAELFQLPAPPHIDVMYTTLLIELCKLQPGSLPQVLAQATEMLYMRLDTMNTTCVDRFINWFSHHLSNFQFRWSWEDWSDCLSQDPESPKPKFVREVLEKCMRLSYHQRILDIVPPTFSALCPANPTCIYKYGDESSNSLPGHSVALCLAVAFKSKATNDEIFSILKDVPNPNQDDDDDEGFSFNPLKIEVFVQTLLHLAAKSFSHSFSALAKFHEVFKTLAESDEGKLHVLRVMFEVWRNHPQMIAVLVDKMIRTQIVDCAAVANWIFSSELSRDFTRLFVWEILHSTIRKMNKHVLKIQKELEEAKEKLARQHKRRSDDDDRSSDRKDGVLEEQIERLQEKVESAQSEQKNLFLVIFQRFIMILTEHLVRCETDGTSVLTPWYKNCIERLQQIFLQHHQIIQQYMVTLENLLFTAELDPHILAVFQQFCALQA
UniProt P12004: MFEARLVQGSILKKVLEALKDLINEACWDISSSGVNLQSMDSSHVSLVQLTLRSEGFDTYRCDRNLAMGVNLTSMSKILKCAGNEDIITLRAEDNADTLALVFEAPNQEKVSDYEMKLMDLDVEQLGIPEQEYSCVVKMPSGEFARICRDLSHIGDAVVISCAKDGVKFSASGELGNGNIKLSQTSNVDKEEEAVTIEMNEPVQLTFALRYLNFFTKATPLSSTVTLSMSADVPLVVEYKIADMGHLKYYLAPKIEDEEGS
UniProt Q99873: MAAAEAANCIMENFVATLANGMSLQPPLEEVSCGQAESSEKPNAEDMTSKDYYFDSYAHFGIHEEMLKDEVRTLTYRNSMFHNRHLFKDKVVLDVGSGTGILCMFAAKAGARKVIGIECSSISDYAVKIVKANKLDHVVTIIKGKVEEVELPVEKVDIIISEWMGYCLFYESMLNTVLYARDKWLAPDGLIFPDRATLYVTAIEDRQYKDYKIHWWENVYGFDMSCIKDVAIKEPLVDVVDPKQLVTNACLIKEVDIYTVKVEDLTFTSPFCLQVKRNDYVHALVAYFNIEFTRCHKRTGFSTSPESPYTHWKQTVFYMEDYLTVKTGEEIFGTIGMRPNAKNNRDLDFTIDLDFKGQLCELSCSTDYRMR
UniProt Q9Y265: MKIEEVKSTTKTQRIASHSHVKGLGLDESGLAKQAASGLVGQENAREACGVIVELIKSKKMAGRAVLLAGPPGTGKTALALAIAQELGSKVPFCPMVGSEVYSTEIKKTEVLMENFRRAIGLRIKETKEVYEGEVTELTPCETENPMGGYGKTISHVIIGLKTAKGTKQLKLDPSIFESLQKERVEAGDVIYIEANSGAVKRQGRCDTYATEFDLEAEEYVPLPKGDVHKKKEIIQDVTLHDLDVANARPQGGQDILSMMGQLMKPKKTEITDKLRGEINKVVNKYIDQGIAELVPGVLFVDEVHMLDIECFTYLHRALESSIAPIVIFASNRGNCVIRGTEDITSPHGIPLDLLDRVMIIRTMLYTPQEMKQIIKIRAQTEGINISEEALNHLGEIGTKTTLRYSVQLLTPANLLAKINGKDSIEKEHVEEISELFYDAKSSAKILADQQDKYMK
UniProt P48436: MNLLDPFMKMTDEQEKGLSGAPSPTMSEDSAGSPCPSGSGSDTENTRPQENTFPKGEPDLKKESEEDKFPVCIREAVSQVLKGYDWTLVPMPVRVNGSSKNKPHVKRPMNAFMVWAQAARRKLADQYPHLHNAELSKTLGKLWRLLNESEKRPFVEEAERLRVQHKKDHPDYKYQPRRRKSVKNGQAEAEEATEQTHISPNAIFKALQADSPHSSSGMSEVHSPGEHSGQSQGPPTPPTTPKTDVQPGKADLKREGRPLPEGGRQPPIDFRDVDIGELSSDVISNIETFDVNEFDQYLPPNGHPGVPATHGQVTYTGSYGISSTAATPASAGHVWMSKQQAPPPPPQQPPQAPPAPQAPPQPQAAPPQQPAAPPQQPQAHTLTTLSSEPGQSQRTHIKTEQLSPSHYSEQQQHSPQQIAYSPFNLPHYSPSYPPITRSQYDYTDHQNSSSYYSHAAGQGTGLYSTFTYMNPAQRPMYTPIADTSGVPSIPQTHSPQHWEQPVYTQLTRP

Molecular target: NELF-E (negative elongation factor subunit E) (human (endogenous in MCF7ras+SS)) (UniProt P18615)
Assay: affinity purification with mass spectrometry; qPLEX-RIME: NELF-E antibody (Abcam ab170104) on Protein A Dynabeads; 50 million MCF7ras+SS cells with or without Dox, dual crosslinked (2 mM DSG, 1% formaldehyde), sheared chromatin; TMT-10 quantification against rabbit IgG controls

binding, binds:
CBX3 (from UniProt Q13185 1-183)
DDX21 (from UniProt Q9NR30 1-783)
DHX15 (from UniProt O43143 1-795)
ENO1 (from UniProt P06733 1-434)
ENO2 (from UniProt P09104 1-434)
HMGB1 (from UniProt P09429 1-215)
NCBP1 (from UniProt Q09161 1-790)
PCNA (from UniProt P12004 1-261)
PRMT1 (from UniProt Q99873 1-371)
RUVBL1 (from UniProt Q9Y265 1-456)
SOX9 (doxycycline-induced in MCF7ras+SS) (from UniProt P48436 1-509)
B1
B2
B3
B4
B5
B6
B7

— paper PMC10147683
